# Test results: PubChem BioAssay AID504444 (National Center for Advancing Translational Sciences (NCATS), 2011)
# In all, about 360,000 compounds went through this assay and about 7,500 (2.1%) were called active. Inconclusive means that the source gave no clear call. Such entries were picked first, then a sample of the others. Calls follow the shape of the dose curve; as a rule, active = well fitted inhibition curve with a large enough effect; inconclusive = small, poorly fitted or top-dose-only effect, or effect the other way; inactive = flat fitted curve, though single readings scatter. Where the call is inconclusive, the potency comes from a doubtful curve fit.
# Experiment: Nrf2 qHTS screen for inhibitors; also: nearly all actives have a fitted effect of over 60% in size
# Conditions: A549 ARE-Fluc reporter, luciferase luminescence, 18-24 h; activity change, negative = inhibition: at 46 µM (top of the series)
# Procedure, shortened: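 Two sequential reads on A549 ARE_Fluc cells exposed to compound for 18-24 h: a CellTiter-Fluor fluorescence read for viability, then a luciferase luminescence read for Nrf2/ARE activity.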
# % is scaled to controls: 0 for no effect and ±100 for the full control effect; potency is read from the fitted curve at half-maximal effect.
SMILES,"activity change, negative = inhibition",Potency
Cc1ccc2nc(Nc3cccc(C(F)(F)F)c3)c3nnnn3c2c1,inactive: 20%,
CN1CCN(/N=C/c2ccc(-c3ccccc3)cc2)CC1,,"inconclusive: 23.1 µM [activator, single point]"
CC(=O)c1ccc(NC(=O)CN2CCCC2)cc1,,"inconclusive: 14.6 µM [activator, single point]"
Oc1ccccc1-c1cc(-c2ccc3c(c2)OCCO3)n[nH]1,,"inconclusive: 29.1 µM [activator, single point]"
O=C(Nc1nc2ccccc2[nH]1)C1CCCC1,,"inconclusive: 7.31 µM [activator, partial curve]"
Cc1ccc(NC(=O)N2CCCC2C(=O)Nc2ccc(-n3cnnn3)c(C)c2)cc1 (stereo not drawn),inactive: 14.5%,
Cc1cccc(-n2ncc3c2CCCC3NC(=O)CC(F)(F)F)c1C (stereo not drawn),,"inconclusive: 18.4 µM [falling, partial curve, poor fit]"
CCOc1ccc(/C=C2\SC(=S)N(CCCC(=O)NCCCN3CCOCC3)C2=O)cc1,,"inconclusive: 29.1 µM [falling, single point]"
COc1ccc(-n2c(C)cc(C(=O)COC(=O)c3ccc(O)cc3O)c2C)cc1,,active: 13 µM
Cc1cccc(NS(=O)(=O)c2ccc(C)c(C(=O)OCC(=O)Nc3cc(C)on3)c2)c1,,"inconclusive: 18.4 µM [activator, single point]"
CCOC(=O)c1ccc(NC(=O)CSc2nc(NC(=O)c3ccccc3)c3c(C)c(C)oc3n2)cc1,,"inconclusive: 29.1 µM [falling, single point]"
COc1ccc(S(=O)(=O)N2CCN(S(=O)(=O)c3ccc4c(c3)OCCO4)CC2)cc1C,,inactive
O=C(NCCO)/C(=C\c1ccco1)NC(=O)c1cccs1,,"inconclusive: 2.06 µM [activator, partial curve, poor fit]"
CC1CCCN(S(=O)(=O)c2csc(C(N)=O)c2)C1 (stereo not drawn),inactive: -22.7%,
Cc1cc(-n2c(C)cc(C(=O)CSc3nnnn3-c3ccc(Cl)cc3)c2C)no1,,"inconclusive: 23.1 µM [falling, single point]"
CCOc1ccccc1CNC(=O)CN1C(=O)c2cccnc2Oc2ccc(Cl)cc21,,"inconclusive: 13 µM [falling, partial curve, poor fit]"
O=C(Nc1ccccc1)c1cccc(S(=O)(=O)NCc2ccco2)c1,,active: 16.4 µM
COc1ccc(/C(N)=N/OC(=O)Cc2cccs2)cc1OC,,"inconclusive: 25.9 µM [activator, single point]"
Cc1ccc(N(CC(=O)Nc2ccc(F)c(Cl)c2)S(=O)(=O)c2c(C)noc2C)cc1,,"inconclusive: 20.6 µM [falling, partial curve, poor fit]"
O=C(Nc1ccccc1)c1ccc(Cl)c(S(=O)(=O)Nc2ccccc2)c1,,"inconclusive: 18.4 µM [falling, single point]"
Cc1ccc(C(=O)c2cn(Cc3ccccc3)c3c(F)cc(F)cc3c2=O)cc1,,"inconclusive: 0.651 µM [falling, full curve, poor fit]"
Cc1cccc(NCCC(=O)c2ccc([N+](=O)[O-])cc2)c1C,inactive: 1.32%,

SMILES,"activity change, negative = inhibition",Potency
CCNC(=S)Nc1ccc(Cl)c([N+](=O)[O-])c1,,active: 18.4 µM
CC(C)c1ccc(C(=O)NC2=NCCS2)cc1,,"inconclusive: 3.66 µM [activator, full curve]"
CCS(=O)(=O)N1CCC2(CC1)OC(=O)C(C)=C2C(=O)NCc1ccc(OC)c(OC)c1,,"inconclusive: 25.9 µM [activator, partial curve, poor fit]"
C/C(=N\Nc1cccc2cccnc12)c1ccc[nH]1,,"inconclusive: 1.64 µM [activator, partial curve, poor fit]"
Cc1cc(C)c(S(=O)(=O)Nc2ccccc2C(=O)N2CCOCC2)c(C)c1,,"inconclusive: 16.4 µM [falling, partial curve, poor fit]"
Cc1ccc(C(=O)COC(=O)c2ccc3c(c2)C(=O)N(c2cccc4ncccc24)C3=O)cc1,,"inconclusive: 14.6 µM [falling, partial curve, poor fit]"
Cc1ccc(-c2nc(-c3cccs3)c(-c3cccs3)[nH]2)cc1,inactive: -9.29%,
COc1ccc(CCNC(=O)C(=O)NCC2OCCN2S(=O)(=O)c2ccc3c(c2)OCCO3)cc1 (stereo not drawn),,active: 9.2 µM
CN(Cc1ccccc1)c1nc2c(S(=O)(=O)c3ccccc3)nnn2c2ccsc12,,"inconclusive: 29.1 µM [activator, single point]"
Cc1csc(NC(=O)Nc2ccccc2[N+](=O)[O-])n1,,"inconclusive: 9.2 µM [activator, partial curve]"
Cc1ccc(S(=O)(=O)c2nnn3c2nc(NC2CCCCC2)c2sccc23)cc1C,,"inconclusive: 29.1 µM [falling, single point]"
Cc1c(C(=O)Nc2ccccc2F)sc2nc3n(c(=O)c12)CCC3,,"inconclusive: 3.66 µM [activator, full curve]"
COc1ccc(NC(=O)CN(C)CC(=O)c2c(C)[nH]c3ccccc23)cc1,inactive: 18.1%,
CCCN(CCC)S(=O)(=O)c1ccc(C(=O)N2CCCc3ccccc32)cc1,,active: 18.4 µM
Cc1cc(C)cc(OCC(=O)N(Cc2ccco2)Cc2ccccc2Cl)c1,,"inconclusive: 20.6 µM [falling, single point]"
CC1C(=O)N2CCCc3cc(S(=O)(=O)NCc4ccc(Cl)cc4)cc1c32 (stereo not drawn),,"inconclusive: 13 µM [falling, partial curve, poor fit]"
CCn1c(=O)c2sccc2n2c(CCCC(=O)Nc3ccc(Oc4ccccc4)cc3)nnc12,inactive: -1.99%,
COc1ccc(Cn2cccc(NC(=O)Nc3cccc(C#N)c3)c2=O)cc1,,active: 5.17 µM
Cc1cnc(C=NNC(N)=S)c2cccc(N)c12,,active: 7.31 µM
COc1ccc(OC)c(NC(=O)N2CCC3(CC2)Oc2ccccc2C(=O)N3Cc2ccccc2F)c1,,"inconclusive: 18.4 µM [falling, single point]"
CCc1cc(=O)oc2cc(C)cc(OCC(=O)C(C)(C)C)c12,,"inconclusive: 20.6 µM [falling, single point]"

# Among those listed so far, these contain an aryl thioether with sulfur outside any ring.
SMILES,"activity change, negative = inhibition",Potency
CCOC(=O)c1ccc(NC(=O)CSc2nc(NC(=O)c3ccccc3)c3c(C)c(C)oc3n2)cc1,,"inconclusive: 29.1 µM [falling, single point]"
Cc1cc(-n2c(C)cc(C(=O)CSc3nnnn3-c3ccc(Cl)cc3)c2C)no1,,"inconclusive: 23.1 µM [falling, single point]"
